# According to the supplement of paper PMC3353916:
# The data scatter; read single values as rough.
# System: Sindbis virus TE/5'2J-GFP
# Assay: percent infected (GFP+ in RFP+ ISG-expressing cells); higher = more infection (less antiviral activity)
# Conditions: experiment: primary screen (single well)
sequence,measurement,setting,value
MKPSGEDQAALAAGPWEECFQAAVQLALRAGQIIRKALTEEKRVSTKTSAADLVTETDHLVEDLIISELRERFPSHRFIAEEAAASGAKCVLTHSPTWIIDPIDGTCNFVHRFPTVAVSIGFAVRQELEFGVIYHCTEERLYTGRRGRGAFCNGQRLRVSGETDLSKALVLTEIGPKRDPATLKLFLSNMERLLHAKAHGVRVIGSSTLALCHLASGAADAYYQFGLHCWDLAAATVIIREAGGIVIDTSGGPLDLMACRVVAASTREMAMLIAQALQTINYGRDDEK [IMPA2],percent infected,BHK/HA-Zeo (control),97.9%
same,percent infected,BHK/NZAP-Zeo (ZAP),91.1%
MKRRTDPECTAPIKKQKKRVAELALSLSSTSDDEPPSSVSHGAKASTTSLSGSDSETEGKQHSSDSFDDAFKADSLVEGTSSRYSMYNSVSQKLMAKMGFREGEGLGKYSQGRKDIVEASSQKGRRGLGLTLRGFDQELNVDWRDEPEPSACEQVSWFPECTTEIPDTQEMSDWMVVGKRKMIIEDETEFCGEELLHSVLQCKSVFDVLDGEEMRRARTRANPYEMIRGVFFLNRAAMKMANMDFVFDRMFTNPRDSYGKPLVKDREAELLYFADVCAGPGGFSEYVLWRKKWHAKGFGMTLKGPNDFKLEDFYSASSELFEPYYGEGGIDGDGDITRPENISAFRNFVLDNTDRKGVHFLMADGGFSVEGQENLQEILSKQLLLCQFLMALSIVRTGGHFICKTFDLFTPFSVGLVYLLYCCFERVCLFKPITSRPANSERYVVCKGLKVGIDDVRDYLFAVNIKLNQLRNTDSDVNLVVPLEVIKGDHEFTDYMIRSNESHCSLQIKALAKIHAFVQDTTLSEPRQAEIRKECLRLWGIPDQARVAPSSSDPKSKFFELIQGTEIDIFSYKPTLLTSKTLEKIRPVFDYRCMVSGSEQKFLIGLGKSQIYTWDGRQSDRWIKLDLKTELPRDTLLSVEIVHELKGEGKAQRKISAIHILDVLVLNGTDVREQHFNQRIQLAEKFVKAVSKPSRPDMNPIRVKEVYRLEEMEKIFVRLEMKIIKGSSGTPKLSYTGRDDRHFVPMGLYIVRTVNEPWTMGFSKSFKKKFFYNKKTKDSTFDLPADSIAPFHICYYGRLFWEWGDGIRVHDSQKPQDQDKLSKEDVLSFIQMHRA [KIAA0082],percent infected,BHK/NZAP-Zeo (ZAP),93%
MKRSSVSSGGAGRLSMQELRSQDVNKQGLYTPQTKEKPTFGKLSINKPTSERKVSLFGKRTSGHGSRNSQLGIFSSSEKIKDPRPLNDKAFIQQCIRQLCEFLTENGYAHNVSMKSLQAPSVKDFLKIFTFLYGFLCPSYELPDTKFEEEVPRIFKDLGYPFALSKSSMYTVGAPHTWPHIVAALVWLIDCIKIHTAMKESSPLFDDGQPWGEETEDGIMHNKLFLDYTIKCYESFMSGADSFDEMNAELQSKLKDLFNVDAFKLESLEAKNRALNEQIARLEQEREKEPNRLESLRKLKASLQGDVQKYQAYMSNLESHSAILDQKLNGLNEEIARVELECETIKQENTRLQNIIDNQKYSVADIERINHERNELQQTINKLTKDLEAEQQKLWNEELKYARGKEAIETQLAEYHKLARKLKLIPKGAENSKGYDFEIKFNPEAGANCLVKYRAQVYVPLKELLNETEEEINKALNKKMGLEDTLEQLNAMITESKRSVRTLKEEVQKLDDLYQQKIKEAEEEDEKCASELESLEKHKHLLESTVNQGLSEAMNELDAVQREYQLVVQTTTEERRKVGNNLQRLLEMVATHVGSVEKHLEEQIAKVDREYEECMSEDLSENIKEIRDKYEKKATLIKSSEE [NDC80],percent infected,BHK/HA-Zeo (control),98%
same,percent infected,BHK/NZAP-Zeo (ZAP),91.2%
MKTFTWTLGVLFFLLVDTGHCRGGQFKIKKINQRRYPRATDGKEEAKKCAYTFLVPEQRITGPICVNTKGQDASTIKDMITRMDLENLKDVLSRQKREIDVLQLVVDVDGNIVNEVKLLRKESRNMNSRVTQLYMQLLHEIIRKRDNSLELSQLENKILNVTTEMLKMATRYRELEVKYASLTDLVNNQSVMITLLEEQCLRIFSRQDTHVSPPLVQVVPQHIPNSQQYTPGLLGGNEIQRDPGYPRDLMPPPDLATSPTKSPFKIPPVTFINEGPFKDCQQAKEAGHSVSGIYMIKPENSNGPMQLWCENSLDPGGWTVIQKRTDGSVNFFRNWENYKKGFGNIDGEYWLGLENIYMLSNQDNYKLLIELEDWSDKKVYAEYSSFRLEPESEFYRLRLGTYQGNAGDSMMWHNGKQFTTLDRDKDMYAGNCAHFHKGGWWYNACAHSNLNGVWYRGGHYRSKHQDGIFWAEYRGGSYSLRAVQMMIKPID [ANGPTL1],percent infected,BHK/HA-Zeo (control),96.4%
same,percent infected,BHK/NZAP-Zeo (ZAP),85.7%
MKVLLRLICFIALLISSLEADKCKEREEKIILVSSANEIDVRPCPLNPNEHKGTITWYKDDSKTPVSTEQASRIHQHKEKLWFVPAKVEDSGHYYCVVRNSSYCLRIKISAKFVENEPNLCYNAQAIFKQKLPVAGDGGLVCPYMEFFKNENNELPKLQWYKDCKPLLLDNIHFSGVKDRLIVMNVAEKHRGNYTCHASYTYLGKQYPITRVIEFITLEENKPTRPVIVSPANETMEVDLGSQIQLICNVTGQLSDIAYWKWNGSVIDEDDPVLGEDYYSVENPANKRRSTLITVLNISEIESRFYKHPFTCFAKNTHGIDAAYIQLIYPVTNFQKHMIGICVTLTVIIVCSVFIYKIFKIDIVLWYRDSCYDFLPIKASDGKTYDAYILYPKTVGEGSTSDCDIFVFKVLPEVLEKQCGYKLFIYGRDDYVGEDIVEVINENVKKSRRLIIILVRETSGFSWLGGSSEEQIAMYNALVQDGIKVVLLELEKIQDYEKMPESIKFIKQKHGAIRWSGDFTQGPQSAKTRFWKNVRYHMPVQRRSPSSKHQLLSPATKEKLQREAHVPLG [IL1R],percent infected,BHK/HA-Zeo (control),98.4%
same,percent infected,BHK/NZAP-Zeo (ZAP),97.3%
MKVTSLDGRQLRKMLRKEAAARCVVLDCRPYLAFAASNVRGSLNVNLNSVVLRRARGGAVSARYVLPDEAARARLLQEGGGGVAAVVVLDQGSRHWQKLREESAARVVLTSLLACLPAGPRVYFLKGGYETFYSEYPECCVDVKPISQEKIESERALISQCGKPVVNVSYRPAYDQGGPVEILPFLYLGSAYHASKCEFLANLHITALLNVSRRTSEACATHLHYKWIPVEDSHTADISSHFQEAIDFIDCVREKGGKVLVHCEAGISRSPTICMAYLMKTKQFRLKEAFDYIKQRRSMVSPNFGFMGQLLQYESEILPSTPNPQPPSCQGEAAGSSLIGHLQTLSPDMQGAYCTFPASVLAPVPTHSTVSELSRSPVATATSC [DUSP5],percent infected,BHK/HA-Zeo (control),97.5%
same,percent infected,BHK/NZAP-Zeo (ZAP),91.2%
MKVWLLLGLLLVHEALEDVTGQHLPKNKRPKEPGENRIKPTNKKVKPKIPKMKDRDSANSAPKTQSIMMQVLDKGRFQKPAATLSLLAGQTVELRCKGSRIGWSYPAYLDTFKDSRLSVKQNERYGQLTLVNSTSADTGEFSCWVQLCSGYICRKDEAKTGSTYIFFTEKGELFVPSPSYFDVVYLNPDRQAVVPCRVTVLSAKVTLHREFPAKEIPANGTDIVYDMKRGFVYLQPHSEHQGVVYCRAEAGGRSQISVKYQLLYVAVPSGPPSTTILASSNKVKSGDDISVLCTVLGEPDVEVEFTWIFPGQKDERPVTIQDTWRLIHRGLGHTTRISQSVITVEDFETIDAGYYICTAQNLQGQTTVATTVEFS [PDGFRL],percent infected,BHK/HA-Zeo (control),98%
same,percent infected,BHK/NZAP-Zeo (ZAP),95.4%
MLLLTRSPTAWHRLSQLKPRVLPGTLGGQALHLRSWLLSRQGPAETGGQGQPQGPGLRTRLLITGLFGAGLGGAWLALRAEKERLQQQKRTEALRQAAVGQGDFHLLDHRGRARCKADFRGQWVLMYFGFTHCPDICPDELEKLVQVVRQLEAEPGLPPVQPVFITVDPERDDVEAMARYVQDFHPRLLGLTGSTKQVAQASHSYRVYYNAGPKDEDQDYIVDHSIAIYLLNPDGLFTDYYGRSRSAEQISDSVRRHMAAFRSVLS [SCO2],percent infected,BHK/HA-Zeo (control),97.6%
same,percent infected,BHK/NZAP-Zeo (ZAP),94.2%
MLLRSKPALPPPLMLLLLGPLGPLSPGALPRPAQAQDVVDLDFFTQEPLHLVSPSFLSVTIDANLATDPRFLILLGSPKLRTLARGLSPAYLRFGGTKTDFLIFDPKKESTFEERSYWQSQVNQDICKYGSIPPDVEEKLRLEWPYQEQLLLREHYQKKFKNSTYSRSSVDVLYTFANCSGLDLIFGLNALLRTADLQWNSSNAQLLLDYCSSKGYNISWELGNEPNSFLKKADIFINGSQLGEDFIQLHKLLRKSTFKNAKLYGPDVGQPRRKTAKMLKSFLKAGGEVIDSVTWHHYYLNGRTATKEDFLNPDVLDIFISSVQKVFQVVESTRPGKKVWLGETSSAYGGGAPLLSDTFAAGFMWLDKLGLSARMGIEVVMRQVFFGAGNYHLVDENFDPLPDYWLSLLFKKLVGTKVLMASVQGSKRRKLRVYLHCTNTDNPRYKEGDLTLYAINLHNVTKYLRLPYPFSNKQVDKYLLRPLGPHGLLSKSVQLNGLTLKMVDDQTLPPLMEKPLRPGSSLGLPAFSYSFFVIRNAKVAACI [HPSE],percent infected,BHK/HA-Zeo (control),63.4%
same,percent infected,BHK/NZAP-Zeo (ZAP),47.5%
MLPDWKSSLILMAYIIIFLTGLPANLLALRAFVGRIRQPQPAPVHILLLSLTLADLLLLLLLPFKIIEAASNFRWYLPKVVCALTSFGFYSSIYCSTWLLAGISIERYLGVAFPVQYKLSRRPLYGVIAALVAWVMSFGHCTIVIIVQYLNTTEQVRSGNEITCYENFTDNQLDVVLPVRLELCLVLFFIPMAVTIFCYWRFVWIMLSQPLVGAQRRRRAVGLAVVTLLNFLVCFGPYNVSHLVGYHQRKSPWWRSIAVVFSSLNASLDPLLFYFSSSVVRRAFGRGLQVLRNQGSSLLGRRGKDTAEGTNEDRGVGQGEGMPSSDFTTE [FFAR2],percent infected,BHK/HA-Zeo (control),98.9%
same,percent infected,BHK/NZAP-Zeo (ZAP),97.4%
MLPRVGCPALPLPPPPLLPLLLLLLGASGGGGGARAEVLFRCPPCTPERLAACGPPPVAPPAAVAAVAGGARMPCAELVREPGCGCCSVCARLEGEACGVYTPRCGQGLRCYPHPGSELPLQALVMGEGTCEKRRDAEYGASPEQVADNGDDHSEGGLVENHVDSTMNMLGGGGSAGRKPLKSGMKELAVFREKVTEQHRQMGKGGKHHLGLEEPKKLRPPPARTPCQQELDQVLERISTMRLPDERGPLEHLYSLHIPNCDKHGLYNLKQCKMSLNGQRGECWCVNPNTGKLIQGAPTIRGDPECHLFYNEQQEARGVHTQRMQ [IGFBP2],percent infected,BHK/HA-Zeo (control),95.3%
MLQRGLWPWRTRLLPTPGTWRPARPWPLPPPPQVLRVKLCGNVKYYQSHHYSTVVPPDEITVIYRHGLPLVTLTLPSRKERCQFVVKPMLSTVGSFLQDLQNEDKGIKTAAIFTADGNMISASTLMDILLMNDFKLVINKIAYDVQCPKREKPSNEHTAEMEHMKSLVHRLFTILHLEESQKKREHHLLEKIDHLKEQLQPLEQVKAGIEAHSEAKTSGLLWAGLALLSIQGGALAWLTWWVYSWDIMEPVTYFITFANSMVFFAYFIVTRQDYTYSAVKSRQFLQFFHKKSKQQHFDVQQYNKLKEDLAKAKESLKQARHSLCLQMQVEELNEKN [CCDC109B],percent infected,BHK/HA-Zeo (control),92.2%
same,percent infected,BHK/NZAP-Zeo (ZAP),80.6%
MLRAGAPTGDLPRAGEVHTGTTIMAVEFDGGVVMGSDSRVSAGEAVVNRVFDKLSPLHERIYCALSGSAADAQAVADMAAYQLELHGIELEEPPLVLAAANVVRNISYKYREDLSAHLMVAGWDQREGGQVYGTLGGMLTRQPFAIGGSGSTFIYGYVDAAYKPGMSPEECRRFTTDAIALAMSRDGSSGGVIYLVTITAAGVDHRVILGNELPKFYDE [PSMB9],percent infected,BHK/HA-Zeo (control),83.6%
same,percent infected,BHK/NZAP-Zeo (ZAP),38.3%
MLRGISQLPAVATMSWVLLPVLWLIVQTQAIAIKQTPELTLHEIVCPKKLHILHKREIKNNQTEKHGKEERYEPEVQYQMILNGEEIILSLQKTKHLLGPDYTETLYSPRGEEITTKPENMEHCYYKGNILNEKNSVASISTCDGLRGYFTHHHQRYQIKPLKSTDEKEHAVFTSNQEEQDPANHTCGVKSTDGKQGPIRISRSLKSPEKEDFLRAQKYIDLYLVLDNAFYKNYNENLTLIRSFVFDVMNLLNVIYNTIDVQVALVGMEIWSDGDKIKVVPSASTTFDNFLRWHSSNLGKKIHDHAQLLSGISFNNRRVGLAASNSLCSPSSVAVIEAKKKNNVALVGVMSHELGHVLGMPDVPFNTKCPSGSCVMNQYLSSKFPKDFSTSCRAHFERYLLSQKPKCLLQAPIPTNIMTTPVCGNHLLEVGEDCDCGSPKECTNLCCEALTCKLKPGTDCGGDAPNHTTE [ADAMDEC1],percent infected,BHK/HA-Zeo (control),97.6%
same,percent infected,BHK/NZAP-Zeo (ZAP),83.6%

# Fetched one by one from the entries so far:
sequence,measurement,setting,value
MKPSGEDQAALAAGPWEECFQAAVQLALRAGQIIRKALTEEKRVSTKTSAADLVTETDHLVEDLIISELRERFPSHRFIAEEAAASGAKCVLTHSPTWIIDPIDGTCNFVHRFPTVAVSIGFAVRQELEFGVIYHCTEERLYTGRRGRGAFCNGQRLRVSGETDLSKALVLTEIGPKRDPATLKLFLSNMERLLHAKAHGVRVIGSSTLALCHLASGAADAYYQFGLHCWDLAAATVIIREAGGIVIDTSGGPLDLMACRVVAASTREMAMLIAQALQTINYGRDDEK [IMPA2],percent infected,BHK/HA-Zeo (control),97.9%
MLQRGLWPWRTRLLPTPGTWRPARPWPLPPPPQVLRVKLCGNVKYYQSHHYSTVVPPDEITVIYRHGLPLVTLTLPSRKERCQFVVKPMLSTVGSFLQDLQNEDKGIKTAAIFTADGNMISASTLMDILLMNDFKLVINKIAYDVQCPKREKPSNEHTAEMEHMKSLVHRLFTILHLEESQKKREHHLLEKIDHLKEQLQPLEQVKAGIEAHSEAKTSGLLWAGLALLSIQGGALAWLTWWVYSWDIMEPVTYFITFANSMVFFAYFIVTRQDYTYSAVKSRQFLQFFHKKSKQQHFDVQQYNKLKEDLAKAKESLKQARHSLCLQMQVEELNEKN [CCDC109B],percent infected,BHK/NZAP-Zeo (ZAP),80.6%
